Test results: PubChem BioAssay AID1347075 (National Center for Advancing Translational Sciences (NCATS), 2019)
Hit rate of the full screen: of about 400,000 compounds, about 5,500 (1.4%) were called active. This list was built around the results that the source calls inconclusive (neither active nor inactive); the mix of calls is not that of the screen. Calls follow the shape of the dose curve; as a rule, active = well fitted cell-killing curve with a large enough effect; inconclusive = small, poorly fitted or top-dose-only effect, or effect the other way; inactive = flat fitted curve, though single readings scatter. Potencies beside an inconclusive call are fits to weak or partial responses and may not hold up.

Assay: qHTS assay for MDR1-selective chemotherapeutics: Primary screen using the parental adenocarcinoma cell KB-3-1; also: nearly all actives have a fitted effect of over 60% in size
Conditions: KB-3-1 viability, CellTiter-Glo ATP luminescence, 72 h; activity change, negative = cytotoxic: at 46.1 µM (top of the series)
How it was run: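 Viability of parental KB-3-1 cells, measured by CellTiter-Glo luminescence, followed a 72 h incubation at 37 °C with pinned compounds in phenol-red-free DMEM containing 10% FBS.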
% is scaled to controls: 0 for no effect and ±100 for the full control effect; potency is read from the fitted curve at half-maximal effect.

Row | Structure (SMILES) | Potency | activity change, negative = cytotoxic
1 | Cc1ccc(N2CCN(C(=O)C3CCCN(c4ncnc5c4nc4n5CCCCC4)C3)CC2)c(C)c1 (centres undefined) | inconclusive: 0.206 µM [rising, full curve] | 
2 | O=C(CCCn1c(=O)[nH]c2ccsc2c1=O)N1CCN(c2cccc(C(F)(F)F)c2)CC1 | inactive | 
3 | COc1cccc(NC(=O)Nc2nc(-c3ccc(OC)c(OC)c3)cs2)c1 | active: 18.4 µM | 
4 | CCOC(=O)c1ccccc1NC(=O)c1c(O)c2ccccc2n(CC)c1=O | inconclusive: 29.1 µM [cytotoxic, single point] | 
5 | CCc1cccc(C)c1NC(=O)NC1COc2ccccc2C1 (centres undefined) | inactive | 
6 | COc1ccc(CN2CCN(C(=O)c3ccc(S(=O)(=O)N4CCCCCC4)cc3)CC2)cc1 | active: 8.2 µM | 
7 | CSc1ccc(/C=C(\C(=O)O)c2ccc(S(=O)(=O)N3CCCCC3)s2)cc1 | inconclusive: 0.0291 µM [rising, full curve] | 
8 | Cc1[nH]c2ccc(C(=O)NCc3ccccn3)cc2c1C | inactive | 
9 | O=C(NC(=S)Nc1cccc(Cl)c1N1CCCCC1)c1cccs1 | inconclusive: 20.6 µM [cytotoxic, partial curve, poor fit] | 
10 | COc1ccc(OC)c(NC(=O)c2nc(S(=O)(=O)Cc3ccccc3F)ncc2Cl)c1 |  | inconclusive: -58.3%
11 | C#CCn1c2ccccc2c2nc3ccccc3nc21 | inactive | 
12 | Cc1c(C(=O)Nc2nc3ccccc3[nH]2)oc2c(Cl)cccc12 | inconclusive: 29.1 µM [cytotoxic, single point] | 
13 | O=C1N[C@@H](Cc2ccccc2)COC(=O)[C@@H](Cc2ccc(F)cc2)C/C=C\C[C@@H]1CC(=O)N(CCO)Cc1ccccc1 | inconclusive: 29.1 µM [cytotoxic, single point] | 
14 | N#CC1(c2nc3ccccc3[nH]2)CC1c1ccc2c(c1)OCO2 (centres undefined) | inconclusive: 20.6 µM [cytotoxic, single point] | 
15 | CC(C)Oc1ccc(C(=O)Nc2nnc(C3=COCCO3)o2)cc1 | inconclusive: 25.9 µM [cytotoxic, partial curve, poor fit] | 
16 | COc1ccc(OCC(=O)Nc2ccccc2N2CCCCC2)cc1 | inconclusive: 4.61 µM [cytotoxic, full curve, poor fit] | 
17 | CN1CCN(C(=O)C(=O)Nc2c3c(nn2-c2cccc(Cl)c2)CSC3)CC1 | inactive | 
18 | COc1ccc(CCNC(=O)CSc2cn(CCNC(=O)c3ccccc3F)c3ccccc23)cc1OC | inconclusive: 20.6 µM [cytotoxic, single point] | 
19 | Cn1c(CSCc2ccc(F)cc2)nnc1SCC(=O)N1CCN(c2ccccc2)CC1 | inconclusive: 16.4 µM [cytotoxic, single point] | 
20 | O=C(CCCCn1c(=O)c2ccccc2n(CC(=O)Nc2ccc(F)cc2F)c1=O)NCc1ccccc1Cl |  | inconclusive: 0.855%
21 | Cc1[nH]c2ccccc2c1C(=O)COC(=O)Cn1cnc2ccccc21 | inactive | 
22 | N/N=C1\CCCc2c1[nH]c1ccc([N+](=O)[O-])cc21 | inconclusive: 20.6 µM [cytotoxic, single point] | 
23 | O=C(N/N=C\c1ccc([N+](=O)[O-])o1)C1COc2ccccc2O1 (centres undefined) | inconclusive: 29.1 µM [cytotoxic, single point] | 

Random excerpt: five entries already listed
Row | Structure (SMILES) | Potency | activity change, negative = cytotoxic
6 | COc1ccc(CN2CCN(C(=O)c3ccc(S(=O)(=O)N4CCCCCC4)cc3)CC2)cc1 | active: 8.2 µM | 
4 | CCOC(=O)c1ccccc1NC(=O)c1c(O)c2ccccc2n(CC)c1=O | inconclusive: 29.1 µM [cytotoxic, single point] | 
20 | O=C(CCCCn1c(=O)c2ccccc2n(CC(=O)Nc2ccc(F)cc2F)c1=O)NCc1ccccc1Cl |  | inconclusive: 0.855%
14 | N#CC1(c2nc3ccccc3[nH]2)CC1c1ccc2c(c1)OCO2 (centres undefined) | inconclusive: 20.6 µM [cytotoxic, single point] | 
16 | COc1ccc(OCC(=O)Nc2ccccc2N2CCCCC2)cc1 | inconclusive: 4.61 µM [cytotoxic, full curve, poor fit] | 

Remaining list, next part.

Row | Structure (SMILES) | Potency | activity change, negative = cytotoxic
24 | C#CCSc1n[nH]c(-c2ccco2)n1 | inactive | 
25 | CC(C)C[C@@H](CN1CCC[C@H]1CN1C(=O)C(=O)NC[C@@H]1Cc1ccc(O)cc1)N1C[C@H](Cc2ccc(O)cc2)N(CC2CCCCCC2)C(=O)C1=O | inconclusive: 25.9 µM [rising, partial curve, poor fit] | 
26 | Cc1ccc(S(=O)(=O)N2CCCCC2CCNC(=O)C(=O)NCCc2ccco2)cc1 (centres undefined) | active: 5.17 µM | 
27 | CCc1ccccc1N1C(=O)N(CC(=O)c2ccc(Cl)cc2)c2ccccc2S1(=O)=O | inactive | 
28 | O=C(Nc1ccc(N2CCCCCC2)cc1)c1cccc(S(=O)(=O)N2CCOCC2)c1 | inconclusive: 16.4 µM [cytotoxic, single point] | 
29 | O=c1[nH]c2cccc(Cl)c2n(CCNc2ncc(C(F)(F)F)cc2Cl)c1=O | inconclusive: 18.4 µM [cytotoxic, single point] | 
30 | CCCN1CCN(C(=O)c2cc(COc3ccc4ncccc4c3)on2)CC1 | inconclusive: 4.61 µM [cytotoxic, full curve, poor fit] | 
31 | Cc1ccc(S(=O)(=O)N2CCN(C(=S)NCc3ccc4c(c3)OCO4)CC2)cc1 | inconclusive: 18.4 µM [cytotoxic, single point] | 
32 | COc1cc(C)ccc1S(=O)(=O)NC(=O)C1(C)CCN1C(=O)c1ccc(C2CCCCC2)cc1 (centres undefined) | inactive | 
33 | COCCNc1ncnc2c1cnn2Cc1ccc(Cl)cc1 | inconclusive: 29.1 µM [cytotoxic, single point] | 
34 | Cc1nn(-c2ccccc2)c(C)c1/C=N/NC(=O)CSc1nc2ccccc2c(=O)n1-c1ccc(Br)cc1 | inconclusive: 16.4 µM [cytotoxic, single point] | 
35 | CCOC(=O)Cn1c(=O)oc2cc(S(=O)(=O)N3CCCC(C)C3)ccc21 (centres undefined) | inactive | 
36 | Cc1cccn2c(=O)c3cc(C(=O)NC4CCCC4)c(=N)n(C4CCCC4)c3nc12 | inconclusive: 29.1 µM [cytotoxic, single point] | 
37 | COC(=O)c1ccc(CN2CCCC(C(=O)Nc3cccc(-n4cnnn4)c3)C2)cc1 (centres undefined) | inconclusive: 20.6 µM [cytotoxic, partial curve, poor fit] | 
38 | Cc1nnc(-c2cccc(Br)c2)c2cn(-c3cccc(Br)c3)nc12 | inconclusive: 32.6 µM [cytotoxic, single point] | 
39 | Cc1ccc(S(=O)(=O)N2CCOCC2)cc1NC(=O)CNc1ccccc1N1CCCC1=O | inactive | 
40 | Cc1ccc2nc(NC(=S)NC(=O)c3ccco3)sc2c1 | inconclusive: 20.6 µM [cytotoxic, single point] | 
41 | O=C(NCCC1CCCCN1S(=O)(=O)c1ccc(Cl)cc1)C(=O)NCc1ccco1 (centres undefined) | inconclusive: 14.6 µM [cytotoxic, single point] | 
42 | Cc1ccc(OCC(=O)NNC(=S)NC(=O)C(C)(C)C)c(Br)c1 | inconclusive: 29.1 µM [cytotoxic, single point] | 
43 | CC(C)(C)c1ccccc1NC(=O)CN1C(=O)NC(Cc2ccccc2)C1=O (centres undefined) | inactive | 
44 | CCOc1ccc(-c2n[nH]c(C)c2-c2ccccc2OC)c(O)c1 | inconclusive: 23.1 µM [cytotoxic, single point] | 
45 | O=C(c1cccc([N+](=O)[O-])c1)N(c1ccccn1)c1ccccn1 | inconclusive: 6.51 µM [rising, single point] | 
46 | Clc1ccc(N=c2ssnc2Cl)cc1 | active: 20.6 µM | 

Row | Structure (SMILES) | Potency | activity change, negative = cytotoxic
47 | CCc1nc(SCC(=O)Nc2ccc3c(c2)OCCO3)c2oc3ccccc3c2n1 | inconclusive: 18.4 µM [cytotoxic, single point] | 
48 | CCCc1cc(=O)[nH]c(SCC(=O)N2N=C(c3ccc(Cl)cc3)CC2c2ccco2)n1 (centres undefined) | inconclusive: 29.1 µM [cytotoxic, single point] | 
49 | CNc1n[nH]c(-c2ccccc2)n1 | inactive | 
50 | Cc1cc(C)c(-c2csc(NC(=O)CCCc3nc4ccccc4c(=O)[nH]3)n2)c(C)c1 | inconclusive: 23.1 µM [cytotoxic, single point] | 
51 | Cc1occc1C(=O)NC1CCCN(Cc2ccc(CC(C)C)cc2)C1 (centres undefined) | inconclusive: 23.1 µM [cytotoxic, partial curve, poor fit] | 
52 | CC(C)=NNc1nc2c(c(=O)[nH]c(=O)n2C)n1CCc1ccccc1 |  | inconclusive: -12.4%
53 | CCOc1ccc(N(CC(=O)N2CCOCC2)S(=O)(=O)c2ccc(SC)cc2)cc1 | inactive | 
54 | C/C(=N/Nc1cc(-c2ccccc2)nc(-c2ccccc2)n1)c1ccc(O)cc1 | inconclusive: 29.1 µM [cytotoxic, single point] | 
55 | CCC(C)(C)C1CCC2(CC1)NC(=O)N(CC(=O)NCCc1c[nH]c3ccccc13)C2=O (centres undefined) | inconclusive: 29.1 µM [cytotoxic, single point] | 
56 | CC(=NNC(=S)Nc1cccc(C)c1)c1ccccn1 | inconclusive: 0.0052 µM [cytotoxic, full curve, poor fit] | 
57 | Cc1c(C(=O)OCC2CCCO2)[nH]c2c1C(=O)CC(c1ccc(N(C)C)cc1)C2 (centres undefined) | inconclusive: 13 µM [cytotoxic, partial curve] | 
58 | CC(=O)C1=CCC(c2ccc(Cl)c(Cl)c2)N(S(=O)(=O)c2ccc(C)cc2)C1 (centres undefined) | inactive | 
59 | O=C(Nc1cccnc1Cl)c1cccs1 | inconclusive: 29.1 µM [rising, single point] | 
60 | COc1ccc(CCNC(=O)C(=O)NCC2CCCN2S(=O)(=O)c2cccs2)cc1 (centres undefined) | inactive | 
61 | Cc1cc(C)c(-c2csc(Cc3nc(-c4cc5ccccc5oc4=O)cs3)n2)cc1C | active: 23.1 µM | 
62 | O=C(CSCc1c(Cl)cccc1Cl)NCC1CCCO1 (centres undefined) | inactive | 
63 | COc1cccc(NC(=O)C2CCCN2S(=O)(=O)c2ccc3nc(-c4ccccc4)[nH]c3c2)c1 (centres undefined) | inconclusive: 29.1 µM [cytotoxic, single point] | 
64 | CSc1ccc(/C=C2\C=Cc3cc([N+](=O)[O-])ccc32)cc1 |  | inconclusive: -3.01%
65 | Cc1cc(C(=O)c2ccccc2)c(NC(=O)CCl)s1 | inconclusive: 29.1 µM [cytotoxic, single point] | 
66 | CCc1ccc(C2NC(=S)NC3=C2C(=O)N(c2ccccc2OC)C(c2ccc(CC)cc2)N3)cc1 (centres undefined) | inactive | 
67 | Cc1cc(NC(=O)C(C)SCC(=O)Nc2nc3c(F)cc(F)cc3s2)no1 (centres undefined) | inactive | 
68 | Cc1nn(CCC(=O)O)c2nc(-c3cccnc3)cc(C(F)(F)F)c12 | inactive | 
69 | Cc1cc(C)n2nc(CNS(=O)(=O)c3ccc([N+](=O)[O-])cc3)nc2n1 | inconclusive: 0.326 µM [rising, full curve] | 
